Data as given in publication PMC4912613, “A broad analysis of resistance development in the malaria parasite” (Nature Communications, 2016).

Experiments:
Type in all cases: cell-based, Plasmodium falciparum
[1] = test system: PfATP4-Mut2 (PfATP4 P412L, parent W2); assay: Cross-resistance EC50 assay, PfATP4-Mut2; settings: hypoxanthine 48-hour assay; synchronized parasites; 96-well format; strain PfATP4 Mut2
In short: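 Asexual blood-stage P. falciparum, resistant lines vs parent or 3D7, tested under identical conditions; EC50 from 48-h ^3H-hypoxanthine incorporation (0.5% parasitemia, 2% haematocrit, label added at 24 h) or 72-h SYBR Green (0.3% parasitemia, 4% haematocrit). Fold shift taken against parent; >5-fold flagged.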

[2] = test system: CYTbQi (cytb G33A, parent Dd2); assay: Cross-resistance EC50 assay, CYTbQi; settings: SYBR green 72 hour assay; synchronized parasites; 384-well format; strain CYTbQi (Dd2 parent)
In short: (§1)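 Readout: ³H-hypoxanthine incorporation (48 h; 2 μM artesunate as negative control) or SYBR Green I fluorescence after overnight lysis (72 h, serum-free medium, synchronized or asynchronous cultures). Values are EC50s, compared as fold shift with parent or 3D7; >5-fold flagged.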

[3] = test system: ProRS (prolyl t-RNA synthetase L482H, parent Dd2); assay: Cross-resistance EC50 assay, ProRS; settings: SYBR green 72 hour assay; synchronized parasites; 384-well format; strain ProRS (Dd2 parent)
In short: as §1

[4] = test system: GNF156R (PfCARL L830V, S1076I and M81I, parent Dd2); assay: Cross-resistance EC50 assay, GNF156R; settings: SYBR green 72 hour assay, asynchronized parasites, 96-well or 1536-well format
In short: as §1

[5] = test system: PfCRT-Q352R (parent Dd2); assay: Cross-resistance EC50 assay, PfCRT-Q352R; settings: SYBR green 72 hour assay; synchronized parasites; 384-well format; strain PfCRT:Q352R (Dd2 parent)
In short: as §1

| SMILES | PfATP4 Mut2 (W2F6 Parent) Average Hill Slope [1] | CYTbQi (Dd2 Parent) Average Hill Slope [2] | ProRS (Dd2 Parent) Average Hill Slope [3] | GNF156R (Dd2 Parent) Average Hill Slope [4] | PfCRT:Q352R (Dd2 Parent) Average Hill Slope [5] |
| --- | --- | --- | --- | --- | --- |
| Nc1ncc(-c2cn[nH]c2)cc1-c1nc2ccc(F)cc2[nH]1 [MMV023367] | 1.22 | 3.96 | 5.63 | 2.20 | 5.52 |
| c1cc(-c2cnc3ccc(-c4ccc(N5CCOCC5)cc4)nn23)ccn1 [MMV668311] | 1.49 | 13.7 | 8.22 | 1.41 | 7.44 |
| Cc1cc(Nc2ccc(OCc3ccccc3)cc2)nc2cc(O)ccc12 [MMV007181] | 1.82 | 2.82 | 1.77 | 1.34 | 1.87 |
| CN(C)CCCN(C)C(=O)C1Cc2cc(-c3ccccc3)ccc2N1S(=O)(=O)c1ccccc1 (stereo not shown) [MMV028895] | 2.33 | 1.96 | 2.83 | 2.64 | 7.12 |
| CCC(C)NCC(O)(c1ccc(Cl)cc1)c1ccc(Cl)cc1 (stereo not shown) [MMV665928] | 1.92 | 2.84 | 1.57 | 1.42 | 1.76 |
| CCOc1cc2c(cc1OCC)C(c1cc(Cl)ccc1O)NCC2 (stereo not shown) [MMV000478] | 1.18 | 2.24 | 1.56 | 1.20 | 1.52 |
| COCCNCC(O)Cn1c2ccc(Cl)cc2c2cc(Cl)ccc21 (stereo not shown) [MMV019017] | 0.90 | 2.71 | 1.28 | 1.21 | 1.88 |
| COc1cc(C(=O)ON=C(N)Cc2cccc3ccccc23)cc(OC)c1OC [MMV666687] | 1.42 | 7.59 | 18.0 | 1.98 | 20.5 |
| Cc1ccc(Cn2c(N3CCC(C(=O)NCc4cccs4)CC3)nc3ccccc32)cc1 [MMV007564] | 1.26 | 2.67 | 1.52 | 2.21 | 2.40 |
| CCCCCCCN(Cc1ccc(OC(C)(C)C(=O)OCC)cc1)C(=O)Nc1ccc(Cl)cc1OCC [MMV021735] | 1.73 | 4.10 | 3.69 | 1.97 | 4.13 |
| CCN(CC)S(=O)(=O)c1ccc(-c2csc(Nc3ccc(C)c(C)c3)n2)cc1 [MMV009108] | 0.45 | 3.07 | 2.35 | 1.51 | 2.10 |
| CNCc1ccc2nc(-c3coc(Cc4cc(Cl)ccc4OCC(C)C)n3)[nH]c2c1.Cl.Cl [MMV026596] | 0.71 | 6.20 | 4.25 | 1.09 | 4.82 |
| O=C(NCC(CCCN1CCC(c2c[nH]c3ccccc23)CC1)c1ccccc1)Nc1ccc(Cl)c(Cl)c1 (stereo not shown) [MMV029272] | 0.62 | 1.42 | 1.67 | 1.18 | 4.97 |
| O=C(Nc1ccccc1O)c1ccc(Oc2cccc(C(=O)Nc3ccccc3O)c2)cc1 [MMV665888] | 1.19 | 3.84 | 1.75 | 1.45 | 2.99 |
